Our source for the binding values is PMC3854864.

No constants are given. Whether binding was seen depends on the method and setting. In cells and extracts the contact can be indirect. Some entries that bind do so weakly or less than the wild type.

The experiment addresses T1, Cdc55 (Pk3-Cdc55), regulatory subunit of PP2A^Cdc55 phosphatase (S. cerevisiae (endogenous in W303 derivatives)) (UniProt Q00362).
T1 sequence: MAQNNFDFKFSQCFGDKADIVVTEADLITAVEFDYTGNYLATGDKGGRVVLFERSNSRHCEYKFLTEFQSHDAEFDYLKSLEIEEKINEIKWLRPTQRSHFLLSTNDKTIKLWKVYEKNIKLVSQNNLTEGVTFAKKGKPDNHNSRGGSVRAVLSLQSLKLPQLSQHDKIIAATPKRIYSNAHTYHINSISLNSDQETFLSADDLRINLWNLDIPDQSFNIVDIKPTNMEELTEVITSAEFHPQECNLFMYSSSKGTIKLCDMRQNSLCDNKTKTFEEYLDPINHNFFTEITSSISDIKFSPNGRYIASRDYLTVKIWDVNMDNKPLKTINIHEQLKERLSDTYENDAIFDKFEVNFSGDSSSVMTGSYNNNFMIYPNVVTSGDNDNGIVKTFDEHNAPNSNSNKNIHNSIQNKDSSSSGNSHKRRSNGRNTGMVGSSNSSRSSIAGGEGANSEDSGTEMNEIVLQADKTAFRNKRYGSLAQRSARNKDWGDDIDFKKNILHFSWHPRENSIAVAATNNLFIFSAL
The experiment is described as follows: co-IP; yeast protein extracts (glass-bead lysis) incubated with anti-Pk antibody (SV5-Pk1) to precipitate Pk3-Cdc55, adsorbed onto protein-A Dynabeads, washed in extraction buffer, eluted with SDS-PAGE loading buffer; 2x10^9 cells for Mob1 and 3.2x10^10 cells for Bfa1; control extracts lacking the Pk epitope on Cdc55; for Bfa1 also pph3Δ pph21Δ pph22-172 cells at 37°C for 120 min and metaphase-arrested cells with separase induced for 120 min.

B1: Mob1 (Mob1-HA6) (protein, UniProt P40484 1-314)
chain: MSFLQNFHISPGQTIRSTRGFKWNTANAANNAGSVSPTKATPHNNTINGNNNNANTINNRADFTNNPVNGYNESDHGRMSPVLTTPKRHAPPPEQLQNVTDFNYTPSHQKPFLQPQAGTTVTTHQDIKQIVEMTLGSEGVLNQAVKLPRGEDENEWLAVHCVDFYNQINMLYGSITEFCSPQTCPRMIATNEYEYLWAFQKGQPPVSVSAPKYVECLMRWCQDQFDDESLFPSKVTGTFPEGFIQRVIQPILRRLFRVYAHIYCHHFNEILELNLQTVLNTSFRHFCLFAQEFELLRPADFGPLLELVMELRDR
Consider B1, for which the binding entry is “binds”.

B2: Bfa1 (Bfa1-HA6) (protein, UniProt P47113 1-574)
chain: MSIRPLTLNGLDEPETSFEELNTTLPRFQSHETLTLEENVPPLSTSTYIPPPSSVGTSDTGTVFSNSTSAFWSNKQADDDQDMEVDQDDEFLNDFQEFQNKKDDFDDAIKTNFHLRNGCRTGPFKNDIFAEEFDRKLSLEDKPRLKQPRSMMELKPKRKLSNSVTSRNLRSGNSVRFKKSMPNLALVNPAIREEEEDEEREREDQREFNYKIDNDTQDTILAKFSSDDEGDFLTGFEELEGEAIDETISSNDKESADHPRFLKKSSSSLPLKISPAQYDIVKHDELLTPGLHRRQRDWNTQQELDSFKEKRSVRHCSNQNVQLNGPAKIKTIKQQIDHNTPMKKGSMIYNPKTMKWEGNENVLSKFSDVDTANRKALLIKNKLQRDADSKKQKYSDLQHARATSRNQKVIGNMILDEQNLRWVSVSEEEADPFAGIPEINLPPVGKSMKKRSSSPFLRSKSQVNTPFVSNDNDGVYQSTAAQARLRKYHSMRTLNGTTETPEISSTFHLSSRALEKFYHEENRWCKKLASWFIPRDETIISVDEETIMDESTVNSKRKSYMYEIRNMVINSTKD
Take B2: the binding entry is “binds”.
